Reference: patent US20030195205A1, “PDE9 inhibitors for treating cardiovascular disorders” (Pfizer Inc., priority 2001, published 2003)
Some of these results come from one statement about several compounds together.

Test system: human PDE1 enzyme
Experiment: PDE1 enzyme inhibition assay, broadly analogous to the PDE9 assay
Assay type: biochemical
Details: PDE9 versus PDE1

Row | SMILES | selective for PDE9 over PDE1
1 | CC(C)c1n[nH]c2c(=O)[nH]c(Cc3ccccc3Oc3ccccc3)nc12 [Compound 52, 3-isopropyl-5-(2-phenoxybenzyl)-1,6-dihydro-pyrazolo[4,3-d]pyrimidin-7-one] | greater than 10 fold
2 | O=c1[nH]c(Cc2ccccc2OCc2ccccc2)nc2c(C3CCCC3)n[nH]c12 [Compound 204, 3-cyclopentyl-5-(2-benzyloxybenzyl)-1,6-dihydro-pyrazolo[4,3-d]pyrimidin-7-one] | greater than 10 fold
